Data source: PubChem BioAssay AID1671195 (Yale University, 2021)
Shown is one part, drawn at random, of about 22,000 deposited reagents. About 1,510 of them (6.9%) count as active. 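Active includes knockdowns raising or lowering LDL uptake; positive z-scores mean more uptake, negative mean less.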 Entries without a mark were called inactive.

Test: 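Genes whose knockdown alters LDL uptake in liver cancer cells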 (primary screen)
Cells: human Huh7 hepatoma cells
Knock-down reagent: siRNA pool against human genes, 18 nM
Time to read-out: about 2 to 2.5 days of knockdown, then 8 h LDL uptake
Challenge: DiI-labelled LDL at 30 µg/ml for 8 h, in lipoprotein-deficient serum medium
Measured: 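Fluorescent LDL signal imaged in cells, scaled to the plate median, robust z-score for each replicate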
Reading the numbers: robust z-score: higher = more LDL uptake after knockdown
Hit rule: 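a gene counts as active if at least two replicate z-scores exceed ±2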

SGTB → robust z-score, replicate 1: -0.2; robust z-score, replicate 2: -0.977; robust z-score, replicate 3: 0.305
ANKRD20A11P (ankyrin repeat domain 20 family member A11, pseudogene) → robust z-score, replicate 1: -0.761; robust z-score, replicate 2: -0.734; robust z-score, replicate 3: -0.839
BMS1P20 (BMS1 pseudogene 20) → robust z-score, replicate 1: 0.0239; robust z-score, replicate 2: 0.832; robust z-score, replicate 3: 0.971
OR5D18 (olfactory receptor family 5 subfamily D member 18) → robust z-score, replicate 1: 0.909; robust z-score, replicate 2: 0.175; robust z-score, replicate 3: -0.535
HECTD1 (HECT domain E3 ubiquitin protein ligase 1) → robust z-score, replicate 1: -1.13; robust z-score, replicate 2: 0.128; robust z-score, replicate 3: -0.623
KIF22 (kinesin family member 22) → robust z-score, replicate 1: 0.852; robust z-score, replicate 2: 1.06; robust z-score, replicate 3: 0.0369
NR5A1 (nuclear receptor subfamily 5 group A member 1) → robust z-score, replicate 1: -0.775; robust z-score, replicate 2: -0.0585; robust z-score, replicate 3: -0.779
GRAP2 (GRB2 related adaptor protein 2) → robust z-score, replicate 1: -0.731; robust z-score, replicate 2: 0.993; robust z-score, replicate 3: -0.624
TLR2 (toll like receptor 2) → robust z-score, replicate 1: 1.03; robust z-score, replicate 2: 0.567; robust z-score, replicate 3: 0.399
NHLRC4 (NHL repeat containing 4) → robust z-score, replicate 1: 0.252; robust z-score, replicate 2: 0.179; robust z-score, replicate 3: 0.618
TRAFD1 (TRAF-type zinc finger domain containing 1) → robust z-score, replicate 1: -0.518; robust z-score, replicate 2: -0.114; robust z-score, replicate 3: -1.53
SLC5A5 → robust z-score, replicate 1: -2.78 (active); robust z-score, replicate 2: -2.8; robust z-score, replicate 3: -2.55
LOC389077 (retired record) → robust z-score, replicate 1: -0.38; robust z-score, replicate 2: 0.073; robust z-score, replicate 3: -0.201
LSM10 (LSM10, U7 small nuclear RNA associated) → robust z-score, replicate 1: -0.638; robust z-score, replicate 2: -0.218; robust z-score, replicate 3: -0.33
FYB2 (FYN binding protein 2) → robust z-score, replicate 1: -0.412; robust z-score, replicate 2: 0.855; robust z-score, replicate 3: 0.576
PSMB1 (proteasome 20S subunit beta 1) → robust z-score, replicate 1: 1.25; robust z-score, replicate 2: 0.706; robust z-score, replicate 3: 1.27

Targets listed so far whose gene name begins with L or l (2):
LOC389077 (retired record) → robust z-score, replicate 1: -0.38; robust z-score, replicate 2: 0.073; robust z-score, replicate 3: -0.201
LSM10 (LSM10, U7 small nuclear RNA associated) → robust z-score, replicate 1: -0.638; robust z-score, replicate 2: -0.218; robust z-score, replicate 3: -0.33
